Data set [1] is described as follows: Maximum density (Dmax) of the magenta dye image after E-6 processing of the coated element. The settings on record: Table II; coupler at 1.62 mmol/sq m, processed by Kodak E-6 process.
The nature of data set [2]: Washout of the magenta dye image on immersion in aqueous acidic ethanol. The settings on record: Table II; stirred solution of 3 ml 12N HCl, 32 ml H2O and 65 ml ethanol for 3 minutes.

`CCOP(=O)(NCCCCCCCCCCC(=O)Nc1c(C)cc(C)c(-c2n[nH]c3c(Cl)c(C(C)(C)C)nn23)c1C)OCC` [Compound 1]: the Dmax in data set [1] is listed as 0.83. In data set [2], the “Percent Washout” value is 54%.

`CCCS(=O)(=O)NCCS(=O)(=O)CCCCCCCCCCC(=O)Nc1c(C)cc(C)c(-c2n[nH]c3c(Cl)c(C(C)(C)C)nn23)c1C` [Compound 2] came in with a Dmax in data set [1] of 1.74. In addition, the “Percent Washout” value in data set [2] is given as 86%.

As to `CCOP(=O)(NCCS(=O)(=O)CCCCCCCCCCC(=O)Nc1c(C)cc(C)c(-c2n[nH]c3c(Cl)c(C(C)(C)C)nn23)c1C)OCC` [Compound 3], the Dmax in data set [1] is 1.06. The “Percent Washout” value in data set [2] came to 94%.

As to `Cc1cc(C)c(-c2n[nH]c3c(Cl)c(C(C)(C)C)nn23)c(C)c1NC(=O)CCCCCCCCCCNC(=O)C(C)(CO)CO` [Compound 4], in data set [1], the Dmax came to 1.35. The “Percent Washout” value in data set [2] was found to be 89%.

`Cc1cc(C)c(-c2n[nH]c3c(Cl)c(C(C)(C)C)nn23)c(C)c1NC(=O)CCCCCOc1ccc(CO)cc1` [Compound 5] showed a Dmax in data set [1] of 1.10. Also, in data set [2], the “Percent Washout” value amounted to 96%.

`CCCCCCC(Oc1ccc(S(=O)(=O)CCO)cc1)C(=O)Nc1c(C)cc(C)c(-c2n[nH]c3c(Cl)c(C(C)(C)C)nn23)c1C` (centres unmarked) [Compound 6]: in data set [1], the Dmax is listed as 1.10. Besides, in data set [2], the “Percent Washout” value worked out at 48%.

`CCCCCCCCC(C(=O)Nc1c(C)cc(C)c(-c2n[nH]c3c(Cl)c(C(C)(C)C)nn23)c1C)S(=O)(=O)CCNC(=O)CC` (centres unmarked) [Compound 7] showed a Dmax in data set [1] of 0.9. The “Percent Washout” value in data set [2] was 81%.

Regarding `CCCCCCCCCCC(Oc1ccc(S(=O)(=O)c2ccc(OCc3ccccc3)cc2)cc1)C(=O)Nc1c(C)cc(C)c(-c2n[nH]c3c(Cl)c(C)nn23)c1C` (centres unmarked) [Compound C-1, reference compound], the Dmax in data set [1] was 0.7. Further, the “Percent Washout” value in data set [2] was found to be 3%.

Take `CCC(C)(C)c1ccc(OCC(=O)Nc2cccc(C(=O)NC3=NN(c4c(Cl)cc(Cl)cc4Cl)C(=O)C3)c2)c(C(C)(C)CC)c1` [Compound C-2, reference compound]: in data set [1], the Dmax is 1.6. The “Percent Washout” value in data set [2] is listed as 8%.

In turn, `Cc1cc(C)c([N+](=O)[O-])c(C)c1-c1n[nH]c2c(Cl)c(C(C)(C)C)nn12` [Compound C-3, reference compound] returned a Dmax in data set [1] of 0.5. The “Percent Washout” value in data set [2] was found to be 98%.

Source of the values: US4990430A, “Process for retouching dye images” (Eastman Kodak Company, priority 1989, dated 1991).
